Results: patent US20250381225A1 (DEVELOPMENT CENTER FOR BIOTECHNOLOGY, published 2025)
Residue numbers refer to the chain shown, from its start. These are yes or no findings as the source states them, for the method shown. Some binding calls cover weakened binding; strength is not graded here. For some assays here: Sequences can lack the tags named with a protein. One block for each binder: values may come before it.

Protein sequences, listed by entry. Tags and fused reporters are not part of them. Residues count along the entry.
UniProt Q15116, residues 25-167: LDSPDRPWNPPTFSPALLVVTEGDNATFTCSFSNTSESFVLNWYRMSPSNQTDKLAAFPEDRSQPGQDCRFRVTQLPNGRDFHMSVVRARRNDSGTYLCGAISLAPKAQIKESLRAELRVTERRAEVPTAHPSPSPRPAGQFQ

Legend:
[1] = molecular target: T1, recombinant PD-1 protein (UniProt Q15116 25-167, limits assumed); assay: ELISA, recombinant PD-1 coated at 0.1 ug/well
T1 construct: It may or may not be the same reagent as PD1-hFc

[2] = molecular target: T2, PD1-hFc (UniProt Q15116 25-167); assay: ELISA on coated PD1-hFc
T2 construct: ELISA coat at 1 ug/ml; not shown: hFc (human Fc)

[3] = molecular target: T2, PD1-hFc; assay: ELISA on PD-1; protein from the CAR plasmid in 293T cells

B1: chimeric anti-human PD-1 2B6 antibody (antibody, V domains shown)
VH: EVKLVESGGGLVKPGGSLKLSCAAAGFTFSSYTMSWVRQTPAKRLEWVATISGGGANIYYPDSVKGRFTISRDNARNTLYLQMSSLRSEDTAMYYCVSPYYAIDFWGQGTSVTVSS
VL: DTVMTQSDKFMSTSVGDRVSITCKASQDVGSAVAWYQQKPGQSPKLLIYWASTRHTGVPDRFTGSGSGTDFTLTISNVQSEDLADYFCQQYSTYTWTFGGGTKLEIK
notes: also called mAb 2B6; M-M
- binding [1]: binds

B3: humanized antibody 2B6 HdB1 Hd (antibody, V domains shown)
VH: EVQLVESGGGLVQPGGSLRLSCKASGFTFSSYTMSWVRQAPGKGLEWVATISGGGANIYYPDSVKGRFTISRDNSKNTLYLQMNSLRAEDTAVYYCVSPYYAIDFWGQGTLVTVSS
VL: DIQMTQSPSSLSASVGDRVTITCKASQDVGSAVAWYQQKPGKAPKLLIYWASTRHTGVPSRFSGSGSGTDFTLTISSLQPEDFATYYCQQYSTYTWTFGQGTKVEIK
notes: Heavy chain HdB1 with light chain Hd
- binding [2]: binds

Second part, the binder after the results:

- binding [2]: binds
- binding [3]: binds
B2: recombinant humanized 2B6 HuB1-scFv-Fc (Fc fusion)
scFv: EVQLVESGGGLVQPGGSLRLSCAASGFTFSSYTMSWVRQAPGKGLEWVATISGGGANIYYPDSVKGRFTISRDNSKNTLYLQMNSLRAEDTAVYYCVSPYYAIDFWGQGTLVTVSSGGGGSGGGGSGGGGSDIQMTQSPSSLSASVGDRVTITCKASQDVGSAVAWYQQKPGKAPKLLIYWASTRHTGVPSRFSGSGSGTDFTLTISSLQPEDFATYYCQQYSTYTWTFGQGTKVEIK
notes: Both carry the same printed name and are kept as one molecule; also called 286 HuB1-scFv-Fc; PD-1^2B6 scFv-Fc; not shown: lim

- binding [2]: binds
B4: humanized antibody 2B6 HuB1 Hd (antibody, V domains shown)
VH: B3 VH with K23A
VL: B3 VL
notes: Heavy chain HuB1 with light chain Hd
